Results are given in words; binding and its absence hold for the method and conditions named. Some entries that bind do so weakly or less than the wild type.
Biological target: T1, endogenous NF-kB p65 subunit of 70Z/3 cells (mouse), Q04207
T1 chain: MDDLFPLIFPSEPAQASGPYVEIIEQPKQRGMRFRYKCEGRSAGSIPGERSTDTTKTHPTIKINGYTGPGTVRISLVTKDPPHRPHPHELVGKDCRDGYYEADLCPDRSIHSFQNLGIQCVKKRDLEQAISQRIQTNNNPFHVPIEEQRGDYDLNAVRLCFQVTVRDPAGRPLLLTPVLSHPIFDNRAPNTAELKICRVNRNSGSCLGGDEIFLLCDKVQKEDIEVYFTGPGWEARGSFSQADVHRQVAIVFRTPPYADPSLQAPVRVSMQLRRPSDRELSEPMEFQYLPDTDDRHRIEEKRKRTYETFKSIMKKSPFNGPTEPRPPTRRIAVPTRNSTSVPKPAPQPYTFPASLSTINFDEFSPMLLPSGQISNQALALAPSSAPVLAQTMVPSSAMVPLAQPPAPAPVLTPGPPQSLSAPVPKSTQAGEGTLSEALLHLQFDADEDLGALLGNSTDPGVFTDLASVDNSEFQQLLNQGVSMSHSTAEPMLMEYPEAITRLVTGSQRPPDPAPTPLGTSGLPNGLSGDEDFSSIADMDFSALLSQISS
Assay: EMSA supershift, nuclear extracts of LPS-treated 70Z/3 cells
Details: remark: other sources report otherwise

- binding: binds
B1: endogenous NF-kB p50 subunit of LPS-treated 70Z/3 cells, P25799 1-431 (protein, mouse, UniProt P25799 1-431, looked up)
chain: MADDDPYGTGQMFHLNTALTHSIFNAELYSPEIPLSTDGPYLQILEQPKQRGFRFRYVCEGPSHGGLPGASSEKNKKSYPQVKICNYVGPAKVIVQLVTNGKNIHLHAHSLVGKHCEDGVCTVTAGPKDMVVGFANLGILHVTKKKVFETLEARMTEACIRGYNPGLLVHSDLAYLQAEGGGDRQLTDREKEIIRQAAVQQTKEMDLSVVRLMFTAFLPDSTGSFTRRLEPVVSDAIYDSKAPNASNLKIVRMDRTAGCVTGGEEIYLLCDKVQKDDIQIRFYEEEENGGVWEGFGDFSPTDVHRQFAIVFKTPKYKDVNITKPASVFVQLRRKSDLETSEPKPFLYYPEIKDKEEVQRKRQKLMPNFSDSFGGGSGAGAGGGGMFGSGGGGGSTGSPGPGYGYSNYGFPPYGGITFHPGVTKSNAGVTHG
